This is an account of results in publication PMC7819943, “Rice protein-binding microarrays: a tool to detect cis-acting elements near promoter regions in rice”.

The chains behind the UniProt entries cited, without tags or fusion partners.
UniProt Q0JBA9, entry or part of it: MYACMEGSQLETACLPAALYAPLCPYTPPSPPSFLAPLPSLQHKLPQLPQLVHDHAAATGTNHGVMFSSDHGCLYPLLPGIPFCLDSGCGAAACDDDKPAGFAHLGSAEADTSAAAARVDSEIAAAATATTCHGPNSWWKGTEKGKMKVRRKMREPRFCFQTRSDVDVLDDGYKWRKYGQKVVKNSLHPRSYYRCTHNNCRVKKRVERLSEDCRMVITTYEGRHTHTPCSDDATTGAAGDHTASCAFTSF

The other results are listed elsewhere or left out.

The target in this experiment is OsWRKY34 (Oryza sativa, UniProt Q0JBA9 1-250). The experiment is described as follows: protein-binding microarray (RPBM); PBS, 2% BSA, 51.3 ng/ul salmon testes DNA, 50 uM zinc acetate, 200 nM TF, 25 C, 1 h; high values mean tight binding. Conditions: protein: recombinant; tags: N-terminal polyhistidine and DsRed monomer fusion (pET32a); label: CyDye5-dUTP incorporated in the synthesized complementary strand; 3' TTTTT single-stranded linker to array surface; dsDNA, one strand shown. The method, boiled down: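 An Axon 4000B scanner gave the binding signal as per-feature fluorescence intensity in arbitrary units. This followed washing of a custom Agilent array that had been incubated for 1 h at 25 °C with 200 nM protein in PBS, 2% BSA, salmon testes DNA and 50 µM zinc acetate. The proteins were transcription factors fused at the N-terminus to polyhistidine and DsRed, expressed in E. coli BL21-CodonPlus and purified on Ni–NTA.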
As for “ATTTCTTTTTCTAGGATGATCCTTTAGTAGTATCCTTTTTCGGAGTCACCTAGTGCAG”, the binding signal is 9840 fluorescence intensity (a.u.). Then “TCCCAGTGAAATAGTTACGTATTTTGTTTGTATACACGCGCGGAGTCACCTAGTGCAG”, with 8360 fluorescence intensity (a.u.); and “GCACACGTCCGCGCGACGCTTCGGTTTCCGCTTTCCATGCCGGAGTCACCTAGTGCAG”, with 8700 fluorescence intensity (a.u.). Then “AGATTTTTTTGAACTTTCTGTCTGGGTCGGCTGTTTGTGTCGGAGTCACCTAGTGCAG”, with 10500 fluorescence intensity (a.u.); and “TTGCAAAATCTCTCTTCCCCATCGCCTCGGGTTTTGATCTCGGAGTCACCTAGTGCAG”, with 9380 fluorescence intensity (a.u.); and “GCTGCTTCTCGATGAGGAATATTTTTTTTGCTTCGGTTAACGGAGTCACCTAGTGCAG”, with 9740 fluorescence intensity (a.u.). As for “CTACTGTAGCCACTGCTCGCTCTGCACTCTCTCTCTGTCTCGGAGTCACCTAGTGCAG”, the binding signal is 9600 fluorescence intensity (a.u.). Then “ACCGCACAGAGAGGGAGGAGGCGGGGAGGACGGTGAGGGGCGGAGTCACCTAGTGCAG”, with 10500 fluorescence intensity (a.u.); and “TGGAGGTGGTGGTGGGAGGAAGGGGAGGAGGAGGCGCGGCCGGAGTCACCTAGTGCAG”, with 15100 fluorescence intensity (a.u.); and “CTCCCGCCGTCTCCGTCACCGTCTACCGTTTGCTCCAGTGCGGAGTCACCTAGTGCAG”, with 9530 fluorescence intensity (a.u.).

As to “GTGTTTATCCCTTTTCAGACTGTTCTTTTTGGCTAAAACTCGGAGTCACCTAGTGCAG”, the binding signal is 10900 fluorescence intensity (a.u.).

As to “GACGTCCACTCATTTATTGCCGTTCTACTATCTTACTGATCGGAGTCACCTAGTGCAG”, the binding signal was 11500 fluorescence intensity (a.u.).

For the sequence “TCTATAGCTCTCTAATCCATTGCCTCGTTTTTCTCTATAGCGGAGTCACCTAGTGCAG”, the binding signal was 8180 fluorescence intensity (a.u.). Consider “TCTTCTTCGTCGTTGCCCGTTGACCCAAGAAGCTGTCTAACGGAGTCACCTAGTGCAG”, for which the binding signal is 11700 fluorescence intensity (a.u.). As to “TTCTCCGGCGACACTGCCACTGCCACGCGTCCCTCCCTTCCGGAGTCACCTAGTGCAG”, the binding signal was 8120 fluorescence intensity (a.u.). With “AATCACAACATGTCTATATAAACCTTGCTCTACACCACAGCGGAGTCACCTAGTGCAG”, the binding signal is 10100 fluorescence intensity (a.u.). The same measure for “TGCTCGGACCATTCCCCGCCCACCATCGCTGCACACTTTTCGGAGTCACCTAGTGCAG”: 17200 fluorescence intensity (a.u.). The same measure for “GGACACTCCACACACTCGACCTATCAACTTCAAGTCTTCACGGAGTCACCTAGTGCAG”: 8520 fluorescence intensity (a.u.); for “CGCTTCGTCGATGTCGCGTGGGCCCAGCCTCTCACATTTGCGGAGTCACCTAGTGCAG”: 8280 fluorescence intensity (a.u.); for “CCTCGCGATCTCCACCATCTCCTTTACTCGTGGGCCCGCACGGAGTCACCTAGTGCAG”: 8800 fluorescence intensity (a.u.). Then “CGGTTTTTATGGGATAGAGGAAGTAGGTGCTTAGGCCCTCCGGAGTCACCTAGTGCAG”, with 8530 fluorescence intensity (a.u.).

On to “AATCTATAAAGTTTATCCTCACTATACTAATGTTATTTTTCGGAGTCACCTAGTGCAG”, for which the binding signal is 9100 fluorescence intensity (a.u.). On to “CAAATTGTTTTTTTAGTGGCTTTGTTCGTACTTATCCAAACGGAGTCACCTAGTGCAG”, for which the binding signal is 10800 fluorescence intensity (a.u.). As for “ATTTTAGTCATTCTCACTCTCCACTAATTCCACCTTAGATCGGAGTCACCTAGTGCAG”, the binding signal was 9620 fluorescence intensity (a.u.). Then “ATGAGAGAGGTAAAATAAACTTATTGCAAAATAGAAGGATCGGAGTCACCTAGTGCAG”, with 8180 fluorescence intensity (a.u.); and “GCGGTGCAGGGCGGTGGCGGCGGCGGGTGGGGCGGTGGCGCGGAGTCACCTAGTGCAG”, with 20900 fluorescence intensity (a.u.). Turning to “GGAGCACCTGTCGTGCGCTGCCGCCATGTACGCGGCGCCGCGGAGTCACCTAGTGCAG”, the binding signal is 8360 fluorescence intensity (a.u.).

Consider “GACTTTTTAGCACATTTTTGACCGTTCATCTTATTCAAAACGGAGTCACCTAGTGCAG”, for which the binding signal was 8780 fluorescence intensity (a.u.). The same measure for “AAACAGAACACAACCACACGCCACGAAACGAACAACAAAACGGAGTCACCTAGTGCAG”: 8400 fluorescence intensity (a.u.); for “ATTTGGTCTCTAACTTCTCAGCTGGCTTTATACTTTGGGACGGAGTCACCTAGTGCAG”: 8810 fluorescence intensity (a.u.); for “ACACCGTACTCACACCTCCACGAAGACGTTCCCAAACACACGGAGTCACCTAGTGCAG”: 8430 fluorescence intensity (a.u.). Then “GGTTTGCTGATGCTCATCTCTGACATTATTCTTTCTGAACCGGAGTCACCTAGTGCAG”, with 8660 fluorescence intensity (a.u.). Then “CAATGATCCCCGCACTCTTGCTCCTCGCTTCCTTGTCCATCGGAGTCACCTAGTGCAG”, with 8450 fluorescence intensity (a.u.); and “GGTGAGGTCGGAGGGAGGGAGGGAGGAAGCAGGGATCGGCCGGAGTCACCTAGTGCAG”, with 8900 fluorescence intensity (a.u.); and “TCTGTTGCTTTTCCAGTTTAGTACCATTGATCATATCTATCGGAGTCACCTAGTGCAG”, with 13200 fluorescence intensity (a.u.).

Regarding “CTTTCTCTTCCTTTCCCCTGTCCTTGCGCCGCCGCCGCCTCGGAGTCACCTAGTGCAG”, the binding signal is 8640 fluorescence intensity (a.u.).

Take “TTTTCCCTCATGTCACGTCGCATTAGTCTGATTTTGAATTCGGAGTCACCTAGTGCAG”: the binding signal was 8980 fluorescence intensity (a.u.).

Take “GCCCACCAACACCGCCTCCGTATCCCGTATCCGTCTCCGACGGAGTCACCTAGTGCAG”: the binding signal was 8800 fluorescence intensity (a.u.). Then “CACTCTGTGTGTGTTCCCTCCTTGTGCTGAGCCGCGGCCGCGGAGTCACCTAGTGCAG”, with 8410 fluorescence intensity (a.u.); and “CACCTGACTCATCGATCCACTACTGCCGCCGCCGCCCATGCGGAGTCACCTAGTGCAG”, with 8180 fluorescence intensity (a.u.); and “GGTATAGTTTTATACTGTTTATATCCAACGTTTGACCGTTCGGAGTCACCTAGTGCAG”, with 10200 fluorescence intensity (a.u.).

As for “ATCATCCGTGTTTGAGTCGGTTTTTAAGTTCGTTCGCTTTCGGAGTCACCTAGTGCAG”, the binding signal is 8810 fluorescence intensity (a.u.). Then “ACAATTTCTTTCATGTCCCTAAACTCTCGACCCTGCCGATCGGAGTCACCTAGTGCAG”, with 8910 fluorescence intensity (a.u.); and “TCTGAACCCCAGCATCTTGGCTCTGAACTCCTCGTTCGTCCGGAGTCACCTAGTGCAG”, with 8490 fluorescence intensity (a.u.); and “CGGCCCCTACTACCACGGCGCCGCCGCGCTCCGCGCCATGCGGAGTCACCTAGTGCAG”, with 8140 fluorescence intensity (a.u.). Then “CCATCACGTTCACGGTCGCATCAGATCACATCACCACATACGGAGTCACCTAGTGCAG”, with 8200 fluorescence intensity (a.u.). With “GCCACCCACGCCGCGCGCTCTCTCGTCGCATCGGCAGCAGCGGAGTCACCTAGTGCAG”, the binding signal was 8540 fluorescence intensity (a.u.). Then “TTGGTCGACATGGGTGGGAGGCGGATCGATGACGTAGAATCGGAGTCACCTAGTGCAG”, with 12100 fluorescence intensity (a.u.).

For “TGCCTCTGTTACCACACTCTCACCTTGCTTAATAAATGCTCGGAGTCACCTAGTGCAG”, the binding signal is 9800 fluorescence intensity (a.u.). With “GCAGCAAGTTGCCTCTCGCCGACCTCTTGTTTCTTTCGTCCGGAGTCACCTAGTGCAG”, the binding signal was 11100 fluorescence intensity (a.u.).

As to “GGTGTGTGGTTTTTTTTTCTTAAACTCCAAATCTCTTTTTCGGAGTCACCTAGTGCAG”, the binding signal was 8340 fluorescence intensity (a.u.). Regarding “TGACAGATTATTTGTGGCTTATTCTTGGTTTTTTTTTATGCGGAGTCACCTAGTGCAG”, the binding signal is 8850 fluorescence intensity (a.u.). Then “TGACATTCTGTTTTGCTTTTCCTGCTGATATCAACATGTTCGGAGTCACCTAGTGCAG”, with 9090 fluorescence intensity (a.u.). Take “CACCTCATCATTTAGTACTACTATGTATTTCCTCCGTCCCCGGAGTCACCTAGTGCAG”: the binding signal was 8580 fluorescence intensity (a.u.).
